# Data as given in patent publication EP4541376A1, “ANTIBODY-DRUG CONJUGATES” (priority 2023, dated 2025).
# Assay: Conjugation study PEG versus Glycine: extent of conjugation (DAR) by HIC-UHPLC and PLRP-HPLC
# Details: conjugated to test antibody
# [1] = Target DAR 4, TCEP eq. 3.0, Payload eq. 6.0
# [2] = Target DAR 6, TCEP eq. 6.0, Payload eq. 8.0
# [3] = Target DAR 8, TCEP eq. 7.5, Payload eq. 10.0
structure (smiles),measurement,setting,value
CC[C@@]1(O)C(=O)OCc2c1cc1n(c2=O)Cc2c-1nc1cc(F)c(C)c3c1c2[C@@H](NC(=O)OCc1ccc(NC(=O)[C@H](C)NC(=O)[C@@H](NC(=O)CNC(=O)CNC(=O)CNC(=O)CNC(=O)CNC(=O)CCN2C(=O)C=CC2=O)C(C)C)cc1)CC3 [Mal-Gly5-VA-PABC-Exatecan] ({Propanoyl(3-maleimido)}-GGGGGVA[PABC]-Exatecan),DAR (HIC),[1],4.0
same,DAR (PLRP),[1],3.8
same,DAR (HIC),[2],5.4
same,DAR (PLRP),[2],6.0
same,DAR (HIC),[3],7.3
same,DAR (PLRP),[3],7.9

# Numbered stars: 1 amine (or outer) side, 2 acyl side, 3 side chain; on linkers, the order of the positions; unused ones are H or OH. Square brackets hold non-standard residues; d marks the D form. Peptide text beside a SMILES is read from it. * marks the point of attachment. Exatecan = CC[C@@]1(O)C(=O)OCc2c1cc1n(c2=O)Cc2c-1nc1cc(F)c(C)c3c1c2[C@@H](N*)CC3; Propanoyl(3-maleimido) = O=C1C=CC(=O)N1CCC(=O)*; PABC = O=C(OCc1ccc(N[*:1])cc1)[*:2]
